Values quoted from earlier work in patent US12605376B2, “Methods of treating relapsing multiple sclerosis using an inhibitor of Bruton's tyrosine kinase” (Genentech, Inc., priority 2020, dated 2026).
pIC50: −log10 of the molar value. For at least one compound, name, drawing or mass did not settle the structure.

Tested on: B cells (CD69)
Details: B cell activation, human whole blood; literature values; cited from earlier work

## C=CC(=O)N1CCC[C@@H](n2nc(-c3ccc(Oc4ccccc4)cc3)c3c(N)ncnc32)C1 [ibrutinib]
  pIC50: 7.92
